Reference: PubChem BioAssay AID1508587 (Peter MacCallum Cancer Centre, 2020)

Assay: 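Retest of knockdowns boosting BRAF inhibitor action on lactate release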 (follow-up of hits)
Cell system: human WM266.4 melanoma cells with a BRAF V600 mutation
Knock-down reagent: single siRNA against human genes, 25 nM
Duration: 96 h
Treatment: vemurafenib 300 nM (about IC25), given 48 h after transfection for 48 h
Measured: 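Per-cell lactate from absorbance divided by DAPI nucleus counts, compared with and without vemurafenib, relative to non-targeting siRNA, mean of 2 replicates; nuclear counts also give cell number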
Direction: lactate per cell, drug vs no drug: higher = less drug-induced drop in lactate per cell
Hit rule: 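Enhancer call for any duplex whose drug versus no-drug per-cell lactate ratio is below 0.55 (2 SD beneath non-targeting average); genes confirmed when at least 2 of their 4 duplexes qualify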
This is one part, drawn at random, of about 1,600 deposited reagents. Over the whole deposit, 623 (39%) are marked active. 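Calls are for each duplex; lactate ratios contain extreme outliers.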 A number with no mark means an inactive call. Reagents against one gene are numbered here. Not all columns of the deposit are shown.

lactate per cell, drug vs no drug, by gene knocked down and reagent
MAGEB4: #1 0.76; #2 0.56; #3 0.8; #4 0.63
H2AC8: #1 0.65; #2 0.94; #3 0.82; #4 0.68
SMG7: #1 0.48 (active); #2 0.43 (active); #3 0.51 (active); #4 0.4 (active)

Reformatted: results already given.
H2AC8 #4
- lactate per cell, drug vs no drug: 0.68

SMG7 #1
- lactate per cell, drug vs no drug: 0.48 (active)

The listing continues.
lactate per cell, drug vs no drug, by gene knocked down and reagent
CDK14: #1 0.55; #2 0.49 (active); #3 0.99; #4 1.02
BTBD1: #1 0.55; #2 0.5 (active); #3 0.64; #4 0.66
